We go through 27 molecules from PubChem BioAssay AID1625 (Sanford-Burnham Center for Chemical Genomics, 2009).

This is one part of the list.

The experiment can be described thus: insulin promoter activators in MIN6 cells, imaging, high-content screening, mouse beta cells (AID 1625).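 Also: total cells summed across four imaged fields per well.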 To be noted: MIN6 insulin promoter-GFP reporter, measured here: cytotoxicity, nuclei count, at 5 µM.
`COc1ccc(C(=O)NCC2(N3CCCCC3)CCCCC2)c(OC)c1OC` yielded a cell count of 1610 cells. The value for `N#CC1(Nc2ccccc2)CCN(Cc2ccccc2)CC1` was 1070 cells; that for `O=C(OC1CN2CCC1CC2)C1c2ccccc2Oc2ccccc21` (configuration not stated) was 776 cells; that for `O=C(NCC1(N2CCOCC2)CCCCC1)c1cc2ccccc2o1` was 948 cells.

Consider `COc1ccc(NC2CCN(CCc3ccccc3)CC2)c(OC)c1`, for which the cell count came to 1080 cells. The value for `CCOc1ccc(C)cc1CN(CCCl)CCCl` was 1320 cells; that for `Cc1ccc(OCC(C)C)c(CN(CCCl)CCCl)c1` was 1090 cells; that for `O=C(NCC1(N2CCCCC2)CCCCC1)c1cccc([N+](=O)[O-])c1` was 1280 cells. Molecule `N#CC1(Nc2ccccc2)CCN(CCc2ccccc2)CC1` displayed a cell count of 1320 cells.

Take `COc1ccc(NC2CCN(C(=O)OC(C)(C)C)CC2)cc1`: the cell count was found to be 1170 cells. The value for `CN1CCN(CCOC(=O)C(O)(c2ccccc2)c2ccccc2)CC1` was 1460 cells; that for `CN(C)c1cccc(C(=O)NCC2(N3CCCCC3)CCCCC2)c1` was 1270 cells.

Molecule `COc1ccc(CN(CCCl)CCCl)cc1Cl` displayed a cell count of 1580 cells. For `CC(C)c1ccc(NC2CCN(C(=O)OC(C)(C)C)CC2)cc1`, the cell count was 1140 cells.

Consider `COc1ccc(C(=O)NCC2(N3CCOCC3)CCCCC2)cc1OC`, for which the cell count amounted to 1300 cells.

`O=C(OC1CN2CCC1CC2)C1c2ccccc2C=Cc2ccccc21` (configuration not stated) came in with a cell count of 1100 cells.

In turn, `N/C(=N\O)c1c(N)no[n+]1[O-]` showed a cell count of 1300 cells. The value for `N#Cc1ccc(C(=O)NCC2(N3CCCCC3)CCCCC2)cc1` was 1280 cells. The figure for `c1ccc(CN2CCC(Nc3ccccc3)CC2)cc1` is 808 cells; for `Fc1ccccc1NC1CCN(Cc2ccccc2)CC1` it is 1310 cells; for `CN(C)c1ccc(C(=O)NCC2(N3CCCCC3)CCCCC2)cc1` it is 1370 cells. The figure for `CCN1CCC(Nc2cccc(F)c2)CC1` is 1260 cells; for `CC(C)(C)OC(=O)N1CCC(Nc2ccccc2)CC1` it is 1100 cells; for `CCOc1ncccc1C(=O)NCC1(N2CCOCC2)CCCCC1` it is 1190 cells. In turn, `CCCOc1ccc(C)cc1CN(CCCl)CCCl` displayed a cell count of 1320 cells. In the case of `CCC(CO)(C(=O)OC1CN2CCC1CC2)c1ccccc1` (configuration not stated), the cell count was 1280 cells.

The molecule `COc1cc(OC)cc(C(=O)NCC2(N3CCOCC3)CCCCC2)c1` yielded a cell count of 1220 cells.
